Some entries repeat one wording, which the source may state once for all of them.
System: aggregated Aβ (Aβ1-42) injected into amygdaloid nucleus
Assay: Confirmation of imaging of amyloid in brain (ex vivo autoradiogram, Aβ1-42)
Design: species or system male Wistar rat
Conditions: brain slice 60 minutes after tail vein injection
Procedure: The following experiment was carried out in order to examine whether amyloid in brain can be imaged by the compound of the present invention.
(1) Aβ1-42 (manufactured by Wako) was dissolved in phosphate buffer (pH 7.4) and shaken at 37° C. for 72 hours, to obtain a 1 mg/mL suspension of aggregated Aβ (hereinafter referred to as amyloid suspension in the Examples).
(2) 2.5 μL (corresponding to […]) of the amyloid suspension was injected into an amygdaloid nucleus on one side of a male Wistar rat (7-week old). As a control, 2.5 μL of a phosphate buffered physiological saline solution (pH 7.4) was injected into an amygdaloid nucleus on the other side of the rat. The rats were examined 1 day after the injection of the amyloid suspension and the phosphate buffered physiological saline solution (pH 7.4).
(3) Compound 1 was dissolved in a 10 mg/mL ascorbic acid-containing physiological saline solution to obtain a sample solution (22 MBq/mL in radioactivity concentration in the sample solution). This solution was injected under thiopental anesthesia into the rat through the tail vein (dosage: 0.5 mL, dosed radioactivity: 11-13 MBq equivalent).
(4) Brain was removed 60 minutes after the injection to prepare a brain slice of 10 μm in thickness with a microtome (type: CM3050S, manufactured by LEICA). The brain slice was exposed to an imaging plate for 20 hours, and then image analysis was carried out by use of a Bio-imaging Analyzer (type: BAS-2500; manufactured by FUJIFILM Corporation).
(5) After the completion of the image analysis using the Bio-imaging Analyzer, […]
Thus, it was confirmed that amyloid was deposited on the slice (FIG. 6b).
The same procedures as in Example 12 were performed except using a solution of Compound 2 in a 10 mg/mL ascorbic acid as a sample solution (the radioactive concentration of the sample solution was 25 MBq/mL).
(1) Aβ1-42 (manufactured by Wako) was dissolved in phosphate buffer (pH 7.4) and shaken at 37° C. for 72 hours, to obtain 1 mg/mL of a suspension of aggregated Aβ (hereinafter referred to as amyloid suspension in the Examples).
(3) A sample solution (30 MBq/mL in radioactivity concentration, Example 24) in which Compound 4 was dissolved in a 10 mg/mL ascorbic acid-containing physiological saline solution and a sample solution (30 MBq/mL in radioactivity concentration, Example 25) in which Compound 6 was dissolved in a 10 mg/mL ascorbic acid-containing physiological saline solution were prepared. This solution was injected under thiopental anesthesia into the rat through the tail vein (dosage: 0.5 mL, dosed radioactivity: 11-15 MBq equivalent).
Thus, it was confirmed that amyloid was deposited on the slice (FIG. 12 and FIG. 13).

Substance | Accumulation of radioactivity at sites other than amyloid injected sites | Accumulation of radioactivity in amygdaloid nucleus on the physiological saline-injected side
2-[4′-(2″-hydroxyethoxy)phenyl]-6-[^123I]iodoimidazo[1,2-a]pyridine [Compound 1] | little radioactive accumulation at the sites other than amyloid injected sites | no significant accumulation of radioactivity
2-(4′-ethoxyphenyl)-6-[^123I]iodoimidazo[1,2-a]pyridine [Compound 2] | some radioactive accumulation in sites other than amyloid injected sites | no significant accumulation of radioactivity
2-[4′-(3″-hydroxypropoxy)phenyl]-6-[^123I]iodoimidazo[1,2-a]pyridine [Compound 6] | little accumulation of radioactivity was observed at sites other than the site to which amyloid was injected | no significant accumulation of radioactivity
2-[3′-(2″-hydroxyethoxy)phenyl]-6-[^123I]iodoimidazo[1,2-a]pyridine [Compound 4] | little accumulation of radioactivity was observed at sites other than the site to which amyloid was injected | no significant accumulation of radioactivity

— US20100249419A1, “UTILIZATION OF NOVEL COMPOUNDS WITH AMYLOID AFFINITY AND METHOD OF PRODUCING THE SAME” (NIHON MEDI-PHYSICS CO., LTD., priority 2007, published 2010)
